Measured values as given in patent publication US8999981B2, “3-amido-pyrrolo[3,4-C]pyrazole-5(1H, 4H,6H) carbaldehyde derivatives” (Pfizer Inc., priority 2007, dated 2015).

Protein sequences, listed by entry. Tags and fused reporters are not part of them. Chains listed by the source or under a name are the forms on record and can include a tag or linker. Residues count along the entry.
UniProt P05771, 1-621 with tags or gaps limits assumed: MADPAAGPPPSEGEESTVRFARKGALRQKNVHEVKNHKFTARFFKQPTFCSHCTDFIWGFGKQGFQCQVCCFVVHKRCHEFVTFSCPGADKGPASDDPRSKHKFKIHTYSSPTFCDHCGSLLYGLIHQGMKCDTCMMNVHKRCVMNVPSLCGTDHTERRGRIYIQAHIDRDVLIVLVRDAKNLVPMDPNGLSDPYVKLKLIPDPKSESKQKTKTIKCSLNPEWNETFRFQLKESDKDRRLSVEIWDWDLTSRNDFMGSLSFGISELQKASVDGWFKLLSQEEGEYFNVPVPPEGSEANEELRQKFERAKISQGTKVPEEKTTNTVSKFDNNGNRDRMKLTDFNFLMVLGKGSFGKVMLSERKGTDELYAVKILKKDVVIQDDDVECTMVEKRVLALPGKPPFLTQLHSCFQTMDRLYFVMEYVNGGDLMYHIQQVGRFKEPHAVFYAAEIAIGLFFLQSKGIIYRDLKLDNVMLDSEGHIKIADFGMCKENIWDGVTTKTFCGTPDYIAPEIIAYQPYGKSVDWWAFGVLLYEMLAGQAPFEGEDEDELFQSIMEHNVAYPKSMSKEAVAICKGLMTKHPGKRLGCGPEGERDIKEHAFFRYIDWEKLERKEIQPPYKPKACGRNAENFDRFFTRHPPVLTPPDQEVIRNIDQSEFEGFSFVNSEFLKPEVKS

Biological target: Protein Kinase C beta 2 (PKCβII) (Homo sapiens (Human), UniProt P05771)
Test: PKCβII coupled PK/LDH spectrophotometric kinase assay
Type: biochemical
Details: read-out: PKCb Ki
[1] = apparent Ki, ATP-competitive model (Morrison equation), 0.1 mM ATP, 30° C.

COCCN1C[C@H](C)N(C(=O)N2Cc3c(NC(=O)c4ccccn4)n[nH]c3C2(C)C)C[C@H]1C [Example A93]
pKi: 7.41

C[C@H]1CN2CCC[C@@]2(C)CN1C(=O)N1Cc2c(NC(=O)c3ccccn3)n[nH]c2C1(C)C
pKi [1]: 7.24

CCc1cc(C(=O)Nc2n[nH]c3c2CN(C(=O)N2C[C@@H](C)N(CC4CCOCC4)C[C@@H]2C)C3(C)C)n(C)n1
pKi [1]: > 8.00

CCN1C[C@H](C)N(C(=O)N2Cc3c(NC(=O)c4ccccn4)n[nH]c3C2(C)C)C[C@H]1C [Example A95]
pKi: 7.71

C[C@@H]1CN(C(=O)N2Cc3c(NC(=O)c4ncccn4)n[nH]c3C2(C)C)[C@@H](C)CN1C
pKi [1]: 7.02

pKi: −log10 of the molar value. Read-outs that look alike come from different tables or passages of the source. The match of structure and compound is tentative.
